Data source: PubChem BioAssay AID504784 (Drosophila RNAi Screening Center, 2011)

- Assay: 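Fly genes whose silencing alters how much lipid cells keep in droplets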 (primary screen)
- Cell system: Drosophila Kc167 embryonic cells
- Knock-down reagent: long dsRNA against Drosophila genes, about 250 ng dsRNA per well
- Timing: 4 days
- Challenge: cells fed 400 µM oleic acid bound to BSA
- Measured: 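Cells imaged and segmented; ratio of lipid droplet area to nuclear area, log-transformed, then normalised as a B-score over the screen; higher means more stored lipid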
- Reading the numbers: droplet/nuclear area B-score: higher = more stored lipid (overstorage)
In all, the deposit lists about 17,000 reagents; shown is a random part of those with a known target gene and a result. 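Each column is one replicate's B-score; the combined score over replicates was not deposited, so single values may mislead.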 Reagents against one gene are numbered here. Reagent sequences are not shown.

target gene,dsRNA no.,"droplet/nuclear area B-score, replicate 1","droplet/nuclear area B-score, replicate 2","droplet/nuclear area B-score, replicate 3"
CG2574,1,3.31,2.85,0.543
CG33285,1,1.32,-0.532,
Sec22,1,-1.13,,
CG18808,1,0.69,0.0995,
CG4462,1,-0.627,-1.23,
Lgr1,1,-0.49,-1.37,
Con,1,0.81,-0.385,
CG1724,1,-0.247,0.423,
Lrpprc2,1,-0.553,,
rdgC,1,-1.38,-0.114,
Gcn2,1,-2.52,8.37,
CG13085,1,0.476,-0.889,
CG32373,1,0.424,0.0819,
Myo10A,1,1.4,0.91,0.0331
Myo10A,2,0.566,1.4,1.43
AOX1,1,-0.274,-0.319,
CG8034,1,0.00988,-0.235,
Cpsf160,1,-0.247,-0.488,
Gr93a,1,0.106,-0.755,
sbb,1,-0.0214,-0.173,
sbb,2,-0.588,-1.13,
wapl,1,0.243,0.681,
Ipk2,1,0.742,-0.0375,
CG15909,1,1.03,1.81,
CheA87a,1,0.554,-0.547,
norpA,1,1.59,,
CG17377,1,0.265,-1.06,
CG17377,2,0.659,0.0314,
CG17377,3,0.521,1.43,
CG13807,1,1.17,-0.47,
CR42532,1,0.301,0.509,
CG32537,1,-0.0113,0.412,
CG7460,1,0.00664,-0.969,
Dnai2,1,-0.469,-0.331,
CG10026,1,-0.0514,-0.0438,
PTPMT1,1,-0.184,0.53,
CG7514,1,-0.682,0.342,
CG13566,1,0.496,-0.204,
Slob,1,-1.39,-0.0978,
mRpL10,1,2.61,-0.462,
CG30284,1,-0.00246,0.44,
CG9231,1,-0.981,0.306,1.26
Mccc1,1,-0.278,14.1,
RpL17,1,7.56,2.21,0.611
Alp5,1,-1.73,-0.0964,
SsRbeta,1,0.56,-2.67,0.939
RIOK2,1,-1.76,0.639,
Ttc30,1,-0.991,0.19,1.13
Mcm6,1,-0.0981,0.344,-0.0457
Prosbeta4,1,7.25,2.68,
IFT54,1,-0.397,0.0671,
SmD1,1,-4.36,-3.3,
orb2,1,1.08,1.96,
orb2,2,1.71,-0.349,
orb2,3,-0.0202,-0.581,
CG14837,1,0.276,0.0825,

Part of the list above in another layout:
Cpsf160: droplet/nuclear area B-score, replicate 1 = -0.247; droplet/nuclear area B-score, replicate 2 = -0.488
Gr93a: droplet/nuclear area B-score, replicate 1 = 0.106; droplet/nuclear area B-score, replicate 2 = -0.755
sbb #1: droplet/nuclear area B-score, replicate 1 = -0.0214; droplet/nuclear area B-score, replicate 2 = -0.173
